Results are given in words; binding and its absence hold for the method and conditions named. In cells and extracts the contact can be indirect. Here binding means that the protein was enriched with, or labelled near, the bait; the list need not be complete. Tags and fused reporters may be left off the sequences shown. One block for each molecule: values may come before it.
Molecular target: T1, Myc-tagged EMC3 (UniProt Q99KI3)
T1 sequence: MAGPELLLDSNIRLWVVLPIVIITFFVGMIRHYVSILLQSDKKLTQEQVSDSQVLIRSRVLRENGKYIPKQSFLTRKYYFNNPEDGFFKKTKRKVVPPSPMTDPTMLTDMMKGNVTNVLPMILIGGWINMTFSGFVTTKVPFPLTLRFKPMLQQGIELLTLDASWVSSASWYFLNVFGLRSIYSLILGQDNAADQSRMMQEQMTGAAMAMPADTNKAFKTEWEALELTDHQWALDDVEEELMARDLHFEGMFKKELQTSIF
Assay: affinity purification with mass spectrometry; MLE-15 cells transfected with empty vector or Myc-EMC3; Myc antibody coimmunoprecipitates isolated from cell lysates with the μMACS c-myc Isolation Kit (Miltenyi Biotec) and analysed by mass spectrometry; five independent pairs; significance by apmsWAPP/TSPM, P < 0.05

binding: binds
Molecule: valosin containing protein (VCP) (from UniProt Q01853 1-806)

binding: binds
B1: EMC8 (protein, UniProt O70378 1-207)
chain: MPGVKLTTQAYCKMVLHGAKYPHCAVNGLLVAERQRPRKEHPPGAGSHTLFVDCIPLFHGTLALTPMLEVALTLIDSWCKDNSYVIAGYYQANERVKDASPNQVAEKVASRIAEGFGDAALIMVDNAKFTMDCAAPTIHVYEQHENRWRCRDPHHDYCEDWPEAQRISASLLDSRSYETLVDFDNHLDDIRSDWTNPEINKAVLHLC

From publication PMC11601914
